Results are given in words; binding and its absence hold for the method and conditions named. Some binding calls cover weakened binding; strength is not graded here. For part of these data: Sequences can lack the tags named with a protein. Blank lines part the entries; values can stand above or below the molecule they belong to.
Assays:
[1] = molecular target: T1, mouse MCAM on stably transfected CHO cells (CHO.mMCAM) (mouse) (UniProt Q8R2Y2); experiment: flow cytometry on cells; CHO.mMCAM or parental CHO cells incubated 30 minutes at 37°C with recombinant laminin 411 or 511 (20 µg/mL), washed, bound laminin detected with fluorescently labeled pan laminin antibody; where indicated cells preincubated 15 minutes with 10 µg/mL neutralizing anti-mouse MCAM; only the binder purified
T1 sequence: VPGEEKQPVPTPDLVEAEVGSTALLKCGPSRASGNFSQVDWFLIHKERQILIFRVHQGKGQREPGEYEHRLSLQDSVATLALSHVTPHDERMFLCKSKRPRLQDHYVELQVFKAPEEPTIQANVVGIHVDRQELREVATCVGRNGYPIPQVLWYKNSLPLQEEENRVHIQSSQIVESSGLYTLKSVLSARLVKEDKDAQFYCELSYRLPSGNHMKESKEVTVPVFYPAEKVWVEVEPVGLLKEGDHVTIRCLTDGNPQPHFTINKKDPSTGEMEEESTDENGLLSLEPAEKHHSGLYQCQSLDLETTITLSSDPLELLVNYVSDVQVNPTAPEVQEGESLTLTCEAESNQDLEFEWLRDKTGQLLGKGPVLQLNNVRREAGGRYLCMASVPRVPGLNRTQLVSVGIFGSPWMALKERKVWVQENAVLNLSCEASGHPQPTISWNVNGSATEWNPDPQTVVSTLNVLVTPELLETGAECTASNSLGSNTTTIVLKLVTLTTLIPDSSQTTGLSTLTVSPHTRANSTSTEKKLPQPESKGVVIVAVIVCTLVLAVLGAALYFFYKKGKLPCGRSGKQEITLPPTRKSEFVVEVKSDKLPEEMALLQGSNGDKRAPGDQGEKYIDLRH

Protein sequences, listed by entry. Tags and fused reporters are not part of them. Lines headed by an entry give the natural chain unless they say otherwise; changes in a name come on top.
UniProt Q16363: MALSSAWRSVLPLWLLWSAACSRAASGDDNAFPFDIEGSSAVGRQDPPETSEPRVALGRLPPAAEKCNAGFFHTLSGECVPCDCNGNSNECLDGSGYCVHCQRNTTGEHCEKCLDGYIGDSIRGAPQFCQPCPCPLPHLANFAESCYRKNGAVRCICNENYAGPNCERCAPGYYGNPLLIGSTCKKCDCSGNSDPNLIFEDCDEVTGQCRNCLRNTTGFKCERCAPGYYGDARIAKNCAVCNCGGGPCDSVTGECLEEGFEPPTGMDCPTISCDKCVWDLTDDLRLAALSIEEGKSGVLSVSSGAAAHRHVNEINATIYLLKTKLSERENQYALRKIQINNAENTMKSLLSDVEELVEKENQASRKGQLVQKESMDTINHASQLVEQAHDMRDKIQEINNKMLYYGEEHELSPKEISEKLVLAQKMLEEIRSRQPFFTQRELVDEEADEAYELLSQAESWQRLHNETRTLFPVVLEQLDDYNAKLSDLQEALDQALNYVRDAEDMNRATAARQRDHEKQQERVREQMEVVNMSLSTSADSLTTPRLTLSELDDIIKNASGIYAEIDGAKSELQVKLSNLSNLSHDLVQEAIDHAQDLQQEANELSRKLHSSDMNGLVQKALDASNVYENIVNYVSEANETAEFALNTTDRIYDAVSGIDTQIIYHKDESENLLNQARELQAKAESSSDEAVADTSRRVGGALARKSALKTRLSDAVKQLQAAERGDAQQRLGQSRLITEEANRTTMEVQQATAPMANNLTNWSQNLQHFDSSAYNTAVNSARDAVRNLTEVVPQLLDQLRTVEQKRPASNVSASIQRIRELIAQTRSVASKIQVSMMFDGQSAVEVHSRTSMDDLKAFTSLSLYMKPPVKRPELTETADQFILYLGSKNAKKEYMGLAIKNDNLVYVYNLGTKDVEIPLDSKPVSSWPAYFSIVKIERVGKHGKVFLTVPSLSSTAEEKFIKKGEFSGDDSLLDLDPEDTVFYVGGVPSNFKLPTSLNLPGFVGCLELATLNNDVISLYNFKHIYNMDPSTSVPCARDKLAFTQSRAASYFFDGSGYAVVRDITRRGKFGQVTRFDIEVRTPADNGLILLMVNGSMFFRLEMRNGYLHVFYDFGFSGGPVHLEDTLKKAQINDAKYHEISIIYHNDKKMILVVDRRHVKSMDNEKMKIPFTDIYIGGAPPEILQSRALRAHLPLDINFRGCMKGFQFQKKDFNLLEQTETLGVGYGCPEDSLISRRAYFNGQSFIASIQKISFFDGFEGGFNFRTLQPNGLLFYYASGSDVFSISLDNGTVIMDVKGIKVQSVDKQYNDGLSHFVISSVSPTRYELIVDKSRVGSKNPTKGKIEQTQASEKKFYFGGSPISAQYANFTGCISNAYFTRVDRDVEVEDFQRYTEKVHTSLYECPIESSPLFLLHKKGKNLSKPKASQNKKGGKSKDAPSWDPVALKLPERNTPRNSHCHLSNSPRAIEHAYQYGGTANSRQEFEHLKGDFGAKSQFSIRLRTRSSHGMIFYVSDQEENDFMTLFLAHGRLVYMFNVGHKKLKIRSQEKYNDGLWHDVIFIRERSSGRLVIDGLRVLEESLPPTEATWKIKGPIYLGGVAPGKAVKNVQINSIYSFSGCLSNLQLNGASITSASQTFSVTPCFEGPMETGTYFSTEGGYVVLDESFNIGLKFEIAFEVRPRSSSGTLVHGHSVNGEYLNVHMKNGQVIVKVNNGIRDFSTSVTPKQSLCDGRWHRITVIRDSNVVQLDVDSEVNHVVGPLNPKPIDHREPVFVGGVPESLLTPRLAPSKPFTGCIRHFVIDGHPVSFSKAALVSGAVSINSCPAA
UniProt O15230: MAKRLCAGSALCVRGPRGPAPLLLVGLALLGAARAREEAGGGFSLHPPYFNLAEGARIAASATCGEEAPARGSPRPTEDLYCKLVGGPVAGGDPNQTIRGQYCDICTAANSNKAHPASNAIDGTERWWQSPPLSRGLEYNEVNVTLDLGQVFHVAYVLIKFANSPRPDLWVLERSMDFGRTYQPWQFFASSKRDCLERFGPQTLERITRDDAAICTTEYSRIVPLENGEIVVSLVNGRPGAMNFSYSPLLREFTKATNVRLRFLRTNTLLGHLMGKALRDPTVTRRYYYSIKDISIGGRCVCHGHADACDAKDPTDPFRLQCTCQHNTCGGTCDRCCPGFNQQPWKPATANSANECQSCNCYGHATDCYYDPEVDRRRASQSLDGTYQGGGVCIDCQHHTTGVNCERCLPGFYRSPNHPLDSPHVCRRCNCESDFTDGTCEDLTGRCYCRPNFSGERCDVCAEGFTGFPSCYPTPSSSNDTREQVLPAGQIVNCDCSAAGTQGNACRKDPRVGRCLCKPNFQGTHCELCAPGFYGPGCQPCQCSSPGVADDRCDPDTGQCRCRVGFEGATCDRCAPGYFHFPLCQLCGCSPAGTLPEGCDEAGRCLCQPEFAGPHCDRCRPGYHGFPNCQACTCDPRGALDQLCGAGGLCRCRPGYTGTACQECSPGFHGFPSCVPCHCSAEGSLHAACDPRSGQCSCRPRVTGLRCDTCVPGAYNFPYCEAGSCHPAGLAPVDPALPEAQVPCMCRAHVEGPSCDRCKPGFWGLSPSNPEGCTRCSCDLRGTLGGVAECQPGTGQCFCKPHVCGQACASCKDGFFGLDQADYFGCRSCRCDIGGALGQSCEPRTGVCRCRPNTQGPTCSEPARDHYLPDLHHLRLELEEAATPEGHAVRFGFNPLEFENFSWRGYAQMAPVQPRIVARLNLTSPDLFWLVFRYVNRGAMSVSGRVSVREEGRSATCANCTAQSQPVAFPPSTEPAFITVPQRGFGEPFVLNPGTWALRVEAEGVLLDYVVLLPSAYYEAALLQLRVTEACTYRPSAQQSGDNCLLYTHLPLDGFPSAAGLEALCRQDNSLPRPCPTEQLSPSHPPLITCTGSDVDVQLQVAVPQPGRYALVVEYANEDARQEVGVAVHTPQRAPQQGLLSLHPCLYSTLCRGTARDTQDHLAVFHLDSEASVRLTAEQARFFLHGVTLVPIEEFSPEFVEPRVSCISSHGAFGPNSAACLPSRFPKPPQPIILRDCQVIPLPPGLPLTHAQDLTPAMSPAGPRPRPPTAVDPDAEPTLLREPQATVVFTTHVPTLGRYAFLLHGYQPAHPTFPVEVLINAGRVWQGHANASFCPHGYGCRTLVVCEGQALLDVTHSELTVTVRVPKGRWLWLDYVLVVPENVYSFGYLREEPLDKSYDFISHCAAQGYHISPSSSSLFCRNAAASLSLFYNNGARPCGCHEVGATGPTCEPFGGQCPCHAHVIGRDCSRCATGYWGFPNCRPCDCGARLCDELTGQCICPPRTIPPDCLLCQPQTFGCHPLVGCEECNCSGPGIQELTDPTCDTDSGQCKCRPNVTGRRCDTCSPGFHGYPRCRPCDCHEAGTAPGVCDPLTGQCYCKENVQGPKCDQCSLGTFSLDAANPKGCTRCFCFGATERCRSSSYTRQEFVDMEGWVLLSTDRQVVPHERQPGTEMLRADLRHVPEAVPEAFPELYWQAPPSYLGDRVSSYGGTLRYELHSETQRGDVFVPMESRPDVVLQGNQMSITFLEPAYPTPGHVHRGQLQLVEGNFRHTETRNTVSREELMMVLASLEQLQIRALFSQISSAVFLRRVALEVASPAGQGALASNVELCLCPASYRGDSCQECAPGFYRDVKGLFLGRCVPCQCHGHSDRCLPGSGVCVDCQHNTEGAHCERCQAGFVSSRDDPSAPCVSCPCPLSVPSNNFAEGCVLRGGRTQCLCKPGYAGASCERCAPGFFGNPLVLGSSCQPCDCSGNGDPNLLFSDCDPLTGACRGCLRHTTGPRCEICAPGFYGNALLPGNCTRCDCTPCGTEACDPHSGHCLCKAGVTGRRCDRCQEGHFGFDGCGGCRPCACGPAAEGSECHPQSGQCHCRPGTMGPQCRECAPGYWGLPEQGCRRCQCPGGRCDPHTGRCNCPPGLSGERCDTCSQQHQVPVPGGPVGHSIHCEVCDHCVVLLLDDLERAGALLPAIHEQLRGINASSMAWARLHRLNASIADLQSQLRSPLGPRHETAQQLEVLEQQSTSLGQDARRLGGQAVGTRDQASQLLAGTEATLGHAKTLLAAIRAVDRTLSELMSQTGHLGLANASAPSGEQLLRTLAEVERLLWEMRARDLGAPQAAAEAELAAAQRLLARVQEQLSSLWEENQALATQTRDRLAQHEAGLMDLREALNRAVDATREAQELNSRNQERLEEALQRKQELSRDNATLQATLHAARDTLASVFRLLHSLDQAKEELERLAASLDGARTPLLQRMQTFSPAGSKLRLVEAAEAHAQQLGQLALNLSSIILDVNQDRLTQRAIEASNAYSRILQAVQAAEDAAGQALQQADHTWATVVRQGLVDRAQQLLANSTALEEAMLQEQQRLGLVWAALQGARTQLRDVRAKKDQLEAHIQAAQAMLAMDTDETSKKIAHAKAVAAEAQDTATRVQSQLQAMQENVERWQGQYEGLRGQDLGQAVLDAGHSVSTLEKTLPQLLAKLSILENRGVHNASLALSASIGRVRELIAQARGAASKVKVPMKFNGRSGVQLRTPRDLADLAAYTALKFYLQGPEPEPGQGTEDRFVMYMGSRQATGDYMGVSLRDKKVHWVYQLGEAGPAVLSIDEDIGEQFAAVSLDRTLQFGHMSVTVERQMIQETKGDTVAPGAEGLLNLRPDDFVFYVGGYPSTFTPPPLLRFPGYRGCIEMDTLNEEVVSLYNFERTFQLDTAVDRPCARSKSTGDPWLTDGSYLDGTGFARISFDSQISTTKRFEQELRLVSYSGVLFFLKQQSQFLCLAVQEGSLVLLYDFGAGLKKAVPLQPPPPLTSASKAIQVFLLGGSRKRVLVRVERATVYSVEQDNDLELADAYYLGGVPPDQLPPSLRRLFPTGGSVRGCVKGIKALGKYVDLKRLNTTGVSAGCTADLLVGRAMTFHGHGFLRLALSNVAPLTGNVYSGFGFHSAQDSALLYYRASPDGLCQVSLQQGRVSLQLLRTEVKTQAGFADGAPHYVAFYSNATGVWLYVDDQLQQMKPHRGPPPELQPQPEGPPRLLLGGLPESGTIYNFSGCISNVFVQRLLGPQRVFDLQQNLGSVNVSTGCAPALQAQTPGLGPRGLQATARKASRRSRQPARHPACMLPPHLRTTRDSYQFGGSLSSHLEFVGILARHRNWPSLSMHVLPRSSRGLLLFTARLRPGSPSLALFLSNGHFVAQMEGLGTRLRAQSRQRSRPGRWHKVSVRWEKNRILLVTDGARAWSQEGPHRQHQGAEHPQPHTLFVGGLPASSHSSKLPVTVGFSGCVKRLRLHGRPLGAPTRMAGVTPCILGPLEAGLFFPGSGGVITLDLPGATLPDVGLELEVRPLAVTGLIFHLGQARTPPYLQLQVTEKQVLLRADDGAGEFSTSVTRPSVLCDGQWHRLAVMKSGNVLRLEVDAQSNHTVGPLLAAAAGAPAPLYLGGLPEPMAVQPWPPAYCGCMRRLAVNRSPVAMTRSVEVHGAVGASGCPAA

[2] = molecular target: T1, mouse MCAM on stably transfected CHO cells (CHO.mMCAM) (mouse); experiment: flow cytometry on cells; soluble MCAM-Fc on CHO cells transfected with MCAM and sorted for high expressors, compared with human IgG control and Fc-tagged CTLA-4; only the binder purified

- binding [1]: binds
Molecule: recombinant human laminin 411 (from UniProt Q16363 25-1823; P07942 22-1786; P11047 34-1609) (complex)

- binding [1]: no binding (tested: 20 µg/mL)
Molecule: recombinant laminin 511 (from UniProt O15230 36-3695; P07942 22-1786; P11047 34-1609) (complex)

- binding [2]: no binding
B1: mMCAM-Fc protein (Fc fusion, UniProt Q8R2Y2 24-563)
chain: VPGEEKQPVPTPDLVEAEVGSTALLKCGPSRASGNFSQVDWFLIHKERQILIFRVHQGKGQREPGEYEHRLSLQDSVATLALSHVTPHDERMFLCKSKRPRLQDHYVELQVFKAPEEPTIQANVVGIHVDRQELREVATCVGRNGYPIPQVLWYKNSLPLQEEENRVHIQSSQIVESSGLYTLKSVLSARLVKEDKDAQFYCELSYRLPSGNHMKESKEVTVPVFYPAEKVWVEVEPVGLLKEGDHVTIRCLTDGNPQPHFTINKKDPSTGEMEEESTDENGLLSLEPAEKHHSGLYQCQSLDLETTITLSSDPLELLVNYVSDVQVNPTAPEVQEGESLTLTCEAESNQDLEFEWLRDKTGQLLGKGPVLQLNNVRREAGGRYLCMASVPRVPGLNRTQLVSVGIFGSPWMALKERKVWVQENAVLNLSCEASGHPQPTISWNVNGSATEWNPDPQTVVSTLNVLVTPELLETGAECTASNSLGSNTTTIVLKLVTLTTLIPDSSQTTGLSTLTVSPHTRANSTSTEKKLPQPESKGVV
modifications: fluorescently labeled when used as a staining reagent on tissue

Reference: PMC3391262
